According to the supplement of paper PMC10849652:
The other results are listed elsewhere or left out.

Chains of the proteins cited; added tags and fusions are not shown. Lines headed by an entry give the natural chain unless they say otherwise; changes in a name come on top.
UniProt Q8WUH2: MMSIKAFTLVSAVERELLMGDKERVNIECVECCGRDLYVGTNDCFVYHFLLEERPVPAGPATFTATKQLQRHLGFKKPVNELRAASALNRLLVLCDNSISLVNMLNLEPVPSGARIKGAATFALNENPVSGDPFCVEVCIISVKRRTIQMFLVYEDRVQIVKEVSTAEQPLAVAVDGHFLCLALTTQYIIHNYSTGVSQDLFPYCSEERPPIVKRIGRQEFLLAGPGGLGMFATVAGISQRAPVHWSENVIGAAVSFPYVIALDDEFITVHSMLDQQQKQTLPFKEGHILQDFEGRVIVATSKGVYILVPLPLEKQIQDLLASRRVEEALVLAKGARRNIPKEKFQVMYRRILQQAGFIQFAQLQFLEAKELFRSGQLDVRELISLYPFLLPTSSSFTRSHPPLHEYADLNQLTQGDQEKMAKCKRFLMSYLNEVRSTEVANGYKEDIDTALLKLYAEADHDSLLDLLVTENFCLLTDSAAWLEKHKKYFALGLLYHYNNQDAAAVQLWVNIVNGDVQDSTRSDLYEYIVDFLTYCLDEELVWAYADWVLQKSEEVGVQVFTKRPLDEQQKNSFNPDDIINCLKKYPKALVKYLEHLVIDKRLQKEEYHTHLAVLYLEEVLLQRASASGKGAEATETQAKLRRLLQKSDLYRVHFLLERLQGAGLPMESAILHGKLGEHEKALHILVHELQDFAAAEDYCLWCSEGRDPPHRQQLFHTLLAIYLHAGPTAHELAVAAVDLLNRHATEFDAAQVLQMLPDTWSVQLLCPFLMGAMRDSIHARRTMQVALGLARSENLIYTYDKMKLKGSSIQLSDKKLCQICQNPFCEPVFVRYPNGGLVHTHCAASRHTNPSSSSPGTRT
UniProt P62072: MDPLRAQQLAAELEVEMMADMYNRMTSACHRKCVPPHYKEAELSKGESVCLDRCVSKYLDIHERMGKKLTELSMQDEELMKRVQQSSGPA
UniProt Q66K14, whole entry, looked up: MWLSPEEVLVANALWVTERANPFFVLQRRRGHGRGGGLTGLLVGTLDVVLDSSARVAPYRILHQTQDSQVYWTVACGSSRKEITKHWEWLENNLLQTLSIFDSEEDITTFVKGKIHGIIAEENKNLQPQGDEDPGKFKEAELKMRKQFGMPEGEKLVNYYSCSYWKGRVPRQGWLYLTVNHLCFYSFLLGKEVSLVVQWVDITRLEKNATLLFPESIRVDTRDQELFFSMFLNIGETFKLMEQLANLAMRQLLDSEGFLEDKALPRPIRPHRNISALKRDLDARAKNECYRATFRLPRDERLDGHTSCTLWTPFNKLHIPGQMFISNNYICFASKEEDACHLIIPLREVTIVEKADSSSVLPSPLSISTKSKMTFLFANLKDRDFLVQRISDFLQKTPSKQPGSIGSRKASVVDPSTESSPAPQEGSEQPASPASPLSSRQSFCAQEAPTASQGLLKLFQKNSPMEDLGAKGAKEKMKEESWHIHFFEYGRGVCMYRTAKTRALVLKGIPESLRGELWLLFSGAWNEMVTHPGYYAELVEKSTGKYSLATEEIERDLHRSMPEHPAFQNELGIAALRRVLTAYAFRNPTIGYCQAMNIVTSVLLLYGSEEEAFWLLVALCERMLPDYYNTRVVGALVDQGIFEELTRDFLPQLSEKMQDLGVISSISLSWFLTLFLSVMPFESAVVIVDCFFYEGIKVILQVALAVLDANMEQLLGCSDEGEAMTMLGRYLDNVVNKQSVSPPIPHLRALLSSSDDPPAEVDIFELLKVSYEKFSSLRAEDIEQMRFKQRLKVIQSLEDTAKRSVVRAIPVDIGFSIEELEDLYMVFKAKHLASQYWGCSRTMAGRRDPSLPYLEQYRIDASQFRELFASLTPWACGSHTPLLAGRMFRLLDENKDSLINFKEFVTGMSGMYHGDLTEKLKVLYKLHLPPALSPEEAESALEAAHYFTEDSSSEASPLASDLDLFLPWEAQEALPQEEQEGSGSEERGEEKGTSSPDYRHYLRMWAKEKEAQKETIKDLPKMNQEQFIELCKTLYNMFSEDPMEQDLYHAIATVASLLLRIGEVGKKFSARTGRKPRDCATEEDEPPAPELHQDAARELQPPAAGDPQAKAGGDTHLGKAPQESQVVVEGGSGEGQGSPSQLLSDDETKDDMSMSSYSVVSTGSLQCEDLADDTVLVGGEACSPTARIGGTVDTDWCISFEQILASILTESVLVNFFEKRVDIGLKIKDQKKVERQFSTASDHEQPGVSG
UniProt P36897: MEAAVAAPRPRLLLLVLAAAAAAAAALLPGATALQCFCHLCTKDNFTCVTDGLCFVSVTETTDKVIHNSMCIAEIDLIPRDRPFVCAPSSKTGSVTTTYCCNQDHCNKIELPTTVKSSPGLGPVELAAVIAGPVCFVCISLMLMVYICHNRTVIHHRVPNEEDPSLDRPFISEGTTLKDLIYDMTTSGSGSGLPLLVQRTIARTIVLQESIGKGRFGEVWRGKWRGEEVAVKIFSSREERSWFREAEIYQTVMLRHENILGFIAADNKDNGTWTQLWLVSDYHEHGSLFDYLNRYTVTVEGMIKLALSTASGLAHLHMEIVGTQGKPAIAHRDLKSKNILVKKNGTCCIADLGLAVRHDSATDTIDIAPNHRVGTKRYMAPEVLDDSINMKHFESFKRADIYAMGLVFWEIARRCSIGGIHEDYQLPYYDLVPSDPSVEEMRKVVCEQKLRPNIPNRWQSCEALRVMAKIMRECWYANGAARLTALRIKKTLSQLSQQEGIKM
UniProt O60220: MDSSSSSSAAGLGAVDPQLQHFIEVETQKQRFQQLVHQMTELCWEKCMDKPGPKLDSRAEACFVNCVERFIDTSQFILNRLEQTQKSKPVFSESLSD
UniProt Q9NWX6: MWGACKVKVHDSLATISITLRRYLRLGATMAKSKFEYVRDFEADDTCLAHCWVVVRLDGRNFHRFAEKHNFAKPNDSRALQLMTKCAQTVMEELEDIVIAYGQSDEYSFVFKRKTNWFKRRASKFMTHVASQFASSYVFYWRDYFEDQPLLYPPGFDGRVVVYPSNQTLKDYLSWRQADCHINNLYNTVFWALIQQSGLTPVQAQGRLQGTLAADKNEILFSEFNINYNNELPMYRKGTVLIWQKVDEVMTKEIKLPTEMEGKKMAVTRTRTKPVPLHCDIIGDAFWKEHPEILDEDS
UniProt O60343: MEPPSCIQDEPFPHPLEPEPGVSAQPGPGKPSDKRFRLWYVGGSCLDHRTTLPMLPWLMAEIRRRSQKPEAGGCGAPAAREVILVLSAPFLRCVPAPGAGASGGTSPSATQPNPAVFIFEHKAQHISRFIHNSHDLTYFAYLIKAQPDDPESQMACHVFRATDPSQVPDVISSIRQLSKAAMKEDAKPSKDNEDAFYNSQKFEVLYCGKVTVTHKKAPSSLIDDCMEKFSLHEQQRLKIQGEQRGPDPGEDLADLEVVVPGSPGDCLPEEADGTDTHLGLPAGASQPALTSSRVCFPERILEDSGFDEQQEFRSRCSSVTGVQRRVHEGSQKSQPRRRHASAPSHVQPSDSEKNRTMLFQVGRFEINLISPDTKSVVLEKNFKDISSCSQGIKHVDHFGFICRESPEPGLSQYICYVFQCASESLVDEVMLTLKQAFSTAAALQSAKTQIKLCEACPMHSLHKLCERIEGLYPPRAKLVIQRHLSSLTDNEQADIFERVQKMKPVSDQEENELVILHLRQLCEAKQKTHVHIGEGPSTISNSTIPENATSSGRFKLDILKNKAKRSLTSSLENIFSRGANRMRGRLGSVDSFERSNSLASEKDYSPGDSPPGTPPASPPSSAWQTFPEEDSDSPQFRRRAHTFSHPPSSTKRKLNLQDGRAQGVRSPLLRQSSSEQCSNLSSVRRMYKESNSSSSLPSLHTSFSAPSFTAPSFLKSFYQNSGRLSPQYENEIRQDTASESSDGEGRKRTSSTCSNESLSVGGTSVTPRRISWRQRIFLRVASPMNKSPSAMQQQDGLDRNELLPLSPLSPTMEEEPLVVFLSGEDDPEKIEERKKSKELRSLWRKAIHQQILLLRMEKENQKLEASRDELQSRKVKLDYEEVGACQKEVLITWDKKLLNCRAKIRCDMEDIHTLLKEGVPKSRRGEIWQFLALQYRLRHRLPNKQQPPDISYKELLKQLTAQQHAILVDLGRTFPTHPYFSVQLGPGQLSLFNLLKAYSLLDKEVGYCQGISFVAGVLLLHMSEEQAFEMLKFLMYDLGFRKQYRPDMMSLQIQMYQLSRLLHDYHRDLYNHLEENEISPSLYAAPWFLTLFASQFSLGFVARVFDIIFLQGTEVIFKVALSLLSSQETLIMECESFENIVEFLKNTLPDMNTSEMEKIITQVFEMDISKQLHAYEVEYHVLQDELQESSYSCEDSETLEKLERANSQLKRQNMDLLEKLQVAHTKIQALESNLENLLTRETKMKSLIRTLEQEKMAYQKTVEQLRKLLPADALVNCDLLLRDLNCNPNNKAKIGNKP
UniProt Q01085: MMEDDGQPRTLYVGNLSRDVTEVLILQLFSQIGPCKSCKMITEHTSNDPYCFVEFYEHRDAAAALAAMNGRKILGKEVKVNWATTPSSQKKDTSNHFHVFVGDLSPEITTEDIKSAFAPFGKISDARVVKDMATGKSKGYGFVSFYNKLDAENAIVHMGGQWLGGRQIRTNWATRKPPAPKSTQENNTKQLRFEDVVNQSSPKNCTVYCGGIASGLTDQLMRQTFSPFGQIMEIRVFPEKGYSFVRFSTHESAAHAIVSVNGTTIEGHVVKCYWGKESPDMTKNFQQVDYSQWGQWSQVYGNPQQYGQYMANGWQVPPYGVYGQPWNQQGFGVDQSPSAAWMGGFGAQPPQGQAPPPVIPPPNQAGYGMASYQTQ
UniProt P21980: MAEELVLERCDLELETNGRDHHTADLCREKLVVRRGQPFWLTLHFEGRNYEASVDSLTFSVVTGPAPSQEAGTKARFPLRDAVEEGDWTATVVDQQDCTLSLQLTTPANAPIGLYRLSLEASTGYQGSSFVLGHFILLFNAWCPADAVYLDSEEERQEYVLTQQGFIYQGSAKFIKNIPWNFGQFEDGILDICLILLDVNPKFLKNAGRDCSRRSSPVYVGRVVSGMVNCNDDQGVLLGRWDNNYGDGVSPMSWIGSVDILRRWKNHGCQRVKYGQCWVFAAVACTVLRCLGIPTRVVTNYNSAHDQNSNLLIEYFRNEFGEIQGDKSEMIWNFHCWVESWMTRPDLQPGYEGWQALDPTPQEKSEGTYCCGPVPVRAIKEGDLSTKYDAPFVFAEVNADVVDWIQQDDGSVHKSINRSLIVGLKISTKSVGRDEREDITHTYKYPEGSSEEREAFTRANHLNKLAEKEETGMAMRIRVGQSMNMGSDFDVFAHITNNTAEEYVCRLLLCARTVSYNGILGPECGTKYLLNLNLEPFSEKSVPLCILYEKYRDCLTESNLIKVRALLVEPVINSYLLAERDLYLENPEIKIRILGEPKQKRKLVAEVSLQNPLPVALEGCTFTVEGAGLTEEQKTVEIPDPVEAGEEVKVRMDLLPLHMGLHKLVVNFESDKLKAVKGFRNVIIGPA
UniProt P01137, whole entry, looked up: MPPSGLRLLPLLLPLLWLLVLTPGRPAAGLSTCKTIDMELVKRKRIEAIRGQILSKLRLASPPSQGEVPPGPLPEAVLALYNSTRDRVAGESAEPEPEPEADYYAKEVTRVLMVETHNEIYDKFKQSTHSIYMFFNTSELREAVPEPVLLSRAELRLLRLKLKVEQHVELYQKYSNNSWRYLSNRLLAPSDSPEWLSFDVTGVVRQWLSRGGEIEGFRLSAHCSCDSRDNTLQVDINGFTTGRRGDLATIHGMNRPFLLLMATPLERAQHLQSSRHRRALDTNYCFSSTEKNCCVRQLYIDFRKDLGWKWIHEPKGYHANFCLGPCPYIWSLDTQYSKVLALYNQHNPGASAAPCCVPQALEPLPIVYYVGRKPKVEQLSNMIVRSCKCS
UniProt Q9Y5L4: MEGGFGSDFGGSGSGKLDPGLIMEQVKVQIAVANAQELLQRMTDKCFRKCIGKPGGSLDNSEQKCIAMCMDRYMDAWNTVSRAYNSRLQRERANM
UniProt O60907: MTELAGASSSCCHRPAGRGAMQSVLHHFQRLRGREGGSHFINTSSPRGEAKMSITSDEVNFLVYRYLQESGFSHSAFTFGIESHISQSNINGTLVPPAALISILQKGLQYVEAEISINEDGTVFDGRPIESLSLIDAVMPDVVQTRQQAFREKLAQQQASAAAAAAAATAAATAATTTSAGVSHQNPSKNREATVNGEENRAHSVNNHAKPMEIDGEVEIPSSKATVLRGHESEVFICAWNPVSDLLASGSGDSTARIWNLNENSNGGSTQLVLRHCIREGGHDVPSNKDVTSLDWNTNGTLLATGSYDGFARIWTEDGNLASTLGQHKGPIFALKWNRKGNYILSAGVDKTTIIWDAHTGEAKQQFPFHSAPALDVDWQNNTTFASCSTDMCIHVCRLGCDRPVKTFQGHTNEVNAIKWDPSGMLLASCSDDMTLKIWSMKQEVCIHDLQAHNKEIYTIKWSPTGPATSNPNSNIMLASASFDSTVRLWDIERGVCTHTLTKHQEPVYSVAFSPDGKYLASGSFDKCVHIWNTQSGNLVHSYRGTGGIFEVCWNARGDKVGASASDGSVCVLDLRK

What follows are targets tested with COc1cc(C(=O)O)ccc1NC(=O)[C@@H]1N[C@@H](CC(C)(C)C)[C@](C#N)(c2ccc(Cl)cc2F)[C@H]1c1cccc(Cl)c1F [idasanutlin] (assay: log2 fold change, soluble protein after heating vs DMSO (PISA); higher = thermal stabilisation; K562 cells, 10 uM, 30 min; active = over 0.2 and 3.5 SD of the protein, either way, in both replicates (recomputed)).
Outline: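 For each measurement, 10 μM compound was applied for 30 min to K562 cells at 2×10^6 cells/mL. Aliquots were heated for 3 min across 48°C-58°C, pooled, and extracted in PBS with 0.5% NP-40 at 4°C; the supernatant after 21,000xg for 90 min was soluble protein. This was quantified by TMTpro 16plex LC-MS/MS with channel sums equalised, and thermal stability was reported relative to control samples from duplicates, on a log2 fold-change scale.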

log2 fold change, inactive:
TEX264 (UniProt Q9Y6I9) -0.076, THOP1 (UniProt P52888) -0.027, TGFBRAP1 (UniProt Q8WUH2) -0.137, TIMM9 (UniProt Q9Y5J7) -0.006, TCF3 (UniProt P15923) -0.027, TIMM10 (UniProt P62072) -0.019, TFR2 (UniProt Q9UP52) 0.035, TBL1XR1 (UniProt Q9BZK7) -0.011, TBC1D9B (UniProt Q66K14) -0.003, TKFC (UniProt Q3LXA3) -0.068, TGFBR1 isoform 2 (UniProt P36897) -0.007, TCOF1 isoform 4 (UniProt Q13428) 0.092, TIMM8A (UniProt O60220) -0.026, THUMPD2 (UniProt Q9BTF0) 0.043, TFB2M (UniProt Q9H5Q4) -0.055, TIMM17A (UniProt Q99595) 0.014, TFRC (UniProt P02786) -0.027, THG1L (UniProt Q9NWX6) -0.056, TBCC (UniProt Q15814) -0.061, TES (UniProt Q9UGI8) -0.038, TELO2 (UniProt Q9Y4R8) -0.103, TBCA (UniProt O75347) 0.045, TBC1D4 (UniProt O60343) 0.01, TIAL1 isoform 2 (UniProt Q01085) 0.026, TLE3 isoform 4 (UniProt Q04726) -0.014, TGM2 (UniProt P21980) -0.051, TGFB1 (UniProt P01137) -0.076, TDP2 isoform 2 (UniProt O95551) -0.004, TECR (UniProt Q9NZ01) -0.111, TIMM22 (UniProt Q9Y584) -0.03, THBS4 (UniProt P35443) 0.005, TERF2 (UniProt Q15554) 0.05, TICAM2 isoform 2 (UniProt Q86XR7) -0.055, TIMM13 (UniProt Q9Y5L4) -0.043, TBL1X (UniProt O60907) -0.006, TF (UniProt P02787) -0.024, THOC5 (UniProt Q13769) 0.06, TBC1D15 isoform 3 (UniProt Q8TC07) -0.058, TESC (UniProt Q96BS2) 0.057, TCERG1 (UniProt O14776) -0.087
